Measurements taken from patent US20180305430A1.

Target: Monkey SA (monkey)
Assay: SPR, BioRad ProteOn XPR36, albumin amine-coupled to GLC chip, 25 C

binding: binds
B1: PEP07986-neutral linker-A500 (protein)
chain: MGSLAEAKEAANAELDSYGVSDFYKRLIDKAKTVEGVEALKDAILAALPTGGGGSGGGSGGGSGGGSASVPIQKVQDDTKTLIKTIVTRINDISHTQSVSSKQKVTGLEFIPGLHPILTLSKMDQTLAVYQQILTSMPSRNVIQISNDLENLRDLLHVLAFSKSCHLPQASGLETLESLGGVLEASGYSTEVVALSRLQGSLQDMLQQLDLSPGC

These are yes or no findings as the source states them, for the method shown. Binding calls can cover weak binding; strength is not graded here.
